Assay results reported in patent US20160090556A1, “PRODUCTS COMPRISING MALODOR REDUCTION MATERIALS” (The Procter & Gamble Company, priority 2014, published 2016).

What was measured:
[1] = Melamine formaldehyde PMC Headspace Response Ratio; conditions: for Comment Code: Melamine formaldehyde PMC Headspace Response Ratio: code letter I
[2] = Melamine formaldehyde PMC leakage; conditions: for Comment Code: Melamine formaldehyde PMC leakage: code letter J
[3] = class code letter within Comment Code

Row | SMILES | Melamine formaldehyde PMC Headspace Response Ratio (Comment Code I) [1, 3] | Melamine formaldehyde PMC leakage (Comment Code J) [2, 3] | Melamine formaldehyde PMC Headspace Response Ratio (Comment Code I) [1] | Melamine formaldehyde PMC leakage (Comment Code J) [2] | also measured
1 | Cc1cc(O)cc(C)c1Cl [Material 557] | – | – | – | – | Comment Code: Melamine formaldehyde PMC Headspace Response Ratio [1]: I (Melamine formaldehyde PMC Headspace Response Ratio greater than or equal to 10); Comment Code: Melamine formaldehyde PMC leakage [2]: J (Melamine formaldehyde PMC leakage less than or equal to 5%)
2 | Cc1c(C)c([N+](=O)[O-])c(C(C)(C)C)c([N+](=O)[O-])c1C [Material 75] | I (Melamine formaldehyde PMC Headspace Response Ratio greater than or equal to 10) | J (Melamine formaldehyde PMC leakage less than or equal to 5%) | – | – | –
3 | CC1(C)C2CC=C(C=O)C1C2 (stereo not drawn) [Material 70] | I (Melamine formaldehyde PMC Headspace Response Ratio greater than or equal to 10) | J (Melamine formaldehyde PMC leakage less than or equal to 5%) | – | – | –
4 | CCC=C(C)C(O)CCCCC (stereo not drawn) [Material 1104] | – | – | I (Melamine formaldehyde PMC Headspace Response Ratio greater than or equal to 10) | J (Melamine formaldehyde PMC leakage less than or equal to 5%) | –
5 | C=C(C)C1CCC(C)(O)CC1 (stereo not drawn) [Material 612] | – | – | I (Melamine formaldehyde PMC Headspace Response Ratio greater than or equal to 10) | J (Melamine formaldehyde PMC leakage less than or equal to 5%) | –
6 | CCCCCCCCCO [Material 49] | I (Melamine formaldehyde PMC Headspace Response Ratio greater than or equal to 10) | J (Melamine formaldehyde PMC leakage less than or equal to 5%) | – | – | –
7 | Cc1ccc(C(C)C)cc1O [Material 575] | – | – | – | – | Comment Code: Melamine formaldehyde PMC Headspace Response Ratio [1]: I (Melamine formaldehyde PMC Headspace Response Ratio greater than or equal to 10); Comment Code: Melamine formaldehyde PMC leakage [2]: J (Melamine formaldehyde PMC leakage less than or equal to 5%)
8 | CC12CCC(CC1)C(C)(C)O2 [Material 376] | – | – | – | – | Comment Code: Melamine formaldehyde PMC Headspace Response Ratio [1]: I (Melamine formaldehyde PMC Headspace Response Ratio greater than or equal to 10); Comment Code: Melamine formaldehyde PMC leakage [2]: J (Melamine formaldehyde PMC leakage less than or equal to 5%)
9 | C=C(OCC)C1C(C)(C)CC(=O)CC1(C)C [Material 182] | I (Melamine formaldehyde PMC Headspace Response Ratio greater than or equal to 10) | J (Melamine formaldehyde PMC leakage less than or equal to 5%) | – | – | –
10 | C=C(C=O)C(C)CCC=C(C)C (stereo not drawn) [Material 819] | – | – | – | – | Comment Code: Melamine formaldehyde PMC Headspace Response Ratio [1]: I (Melamine formaldehyde PMC Headspace Response Ratio greater than or equal to 10); Comment Code: Melamine formaldehyde PMC leakage [2]: J (Melamine formaldehyde PMC leakage less than or equal to 5%)
11 | CCCCC(CC)C1OCCO1 (stereo not drawn) [Material 1043] | – | – | I (Melamine formaldehyde PMC Headspace Response Ratio greater than or equal to 10) | J (Melamine formaldehyde PMC leakage less than or equal to 5%) | –
12 | CC1CCC2(O1)C(C)(C)CCCC2(C)O (stereo not drawn) [Material 893] | – | – | I (Melamine formaldehyde PMC Headspace Response Ratio greater than or equal to 10) | J (Melamine formaldehyde PMC leakage less than or equal to 5%) | –
13 | CC1=CC(C)C(C=O)C(C)C1 (stereo not drawn) [Material 218] | I (Melamine formaldehyde PMC Headspace Response Ratio greater than or equal to 10) | J (Melamine formaldehyde PMC leakage less than or equal to 5%) | – | – | –
14 | C=C1CCCC(C)(C)C1C=C(C)C(C)=O (stereo not drawn) [Material 913] | – | – | I (Melamine formaldehyde PMC Headspace Response Ratio greater than or equal to 10) | J (Melamine formaldehyde PMC leakage less than or equal to 5%) | –
15 | CC1=CCCC(C)(C)C12CCC(C)O2 (stereo not drawn) [Material 1057] | – | – | I (Melamine formaldehyde PMC Headspace Response Ratio greater than or equal to 10) | J (Melamine formaldehyde PMC leakage less than or equal to 5%) | –

Read-outs that look alike come from different tables or passages of the source. Some entries repeat one wording, which the source may state once for all of them.
